Data reported in PMC7810988, “Inositol pyrophosphates promote the interaction of SPX domains with the coiled-coil motif of PHR transcription factors to regulate plant phosphate homeostasis” (Nature Communications, 2021).
Changes are numbered by the printed parent chain. Results are given in words; binding and its absence hold for the method and conditions named. Values belong to the substance of their own block, whether it stands above or below them.

Protein sequences, listed by entry. Tags and fused reporters are not part of them. Lines headed by an entry give the natural chain unless they say otherwise; changes in a name come on top. Chains listed by the source or under a name are the forms on record and can include a tag or linker. Residues count along the entry.
AtPHR1^226–360 fused to the Gal4-activation domain (Q94CL7, residues 226-360): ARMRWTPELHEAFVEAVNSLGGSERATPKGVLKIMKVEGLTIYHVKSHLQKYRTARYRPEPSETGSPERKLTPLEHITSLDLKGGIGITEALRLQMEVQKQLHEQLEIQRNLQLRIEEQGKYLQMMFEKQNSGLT
AtPHR1^280–360 Olig2 (Q94CL7, form named): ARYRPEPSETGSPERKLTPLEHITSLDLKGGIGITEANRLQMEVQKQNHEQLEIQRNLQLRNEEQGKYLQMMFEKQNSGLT
AtPHR1^(222-358 Olig1) (Q94CL7, form named): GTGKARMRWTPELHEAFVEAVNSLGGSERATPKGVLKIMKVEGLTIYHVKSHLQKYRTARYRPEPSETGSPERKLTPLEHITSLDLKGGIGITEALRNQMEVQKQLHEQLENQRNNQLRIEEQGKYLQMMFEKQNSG
AtPHR1^280–360 Olig1 (Q94CL7, form named): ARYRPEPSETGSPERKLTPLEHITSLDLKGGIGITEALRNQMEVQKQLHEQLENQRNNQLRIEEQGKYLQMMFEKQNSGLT
AtPHR1^(222-358 Olig2) (Q94CL7, form named): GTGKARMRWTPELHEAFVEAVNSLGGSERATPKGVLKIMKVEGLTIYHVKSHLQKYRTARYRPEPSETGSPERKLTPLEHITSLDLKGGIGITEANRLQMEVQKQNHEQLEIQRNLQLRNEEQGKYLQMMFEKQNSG

Assays:
[1] = target: AtPHR1^280–360 Olig2 (Arabidopsis thaliana) (UniProt Q94CL7); experiment: SEC-RALS; size-exclusion chromatography with right-angle light scattering; 50 µL of 2–10 mg/mL protein, 20 mM HEPES pH 7.5, 150 mM NaCl, Superdex 200 increase 10/300 GL, 25 °C; both purified
[2] = target: AtPHR1^(222-358 Olig1) (Arabidopsis thaliana) (UniProt Q94CL7); experiment: as above
[3] = target: AtPHR1^280–360 Olig1 (Arabidopsis thaliana) (UniProt Q94CL7); experiment: as above
[4] = target: AtPHR1^(222-358 Olig2) (Arabidopsis thaliana) (UniProt Q94CL7); experiment: as above
[5] = target: T1, AtSPX1^PBC (yeast two-hybrid) (Arabidopsis thaliana) (UniProt Q8LBH4); experiment: two-hybrid; AtPHR1 constructs fused to the Gal4-AD (prey), AtSPX proteins fused to the LexA-BD (bait); spotting dilution on SD medium lacking histidine (Fig. 3b: with 10 mM 3-AT), 30 °C, 3 days
T1 sequence: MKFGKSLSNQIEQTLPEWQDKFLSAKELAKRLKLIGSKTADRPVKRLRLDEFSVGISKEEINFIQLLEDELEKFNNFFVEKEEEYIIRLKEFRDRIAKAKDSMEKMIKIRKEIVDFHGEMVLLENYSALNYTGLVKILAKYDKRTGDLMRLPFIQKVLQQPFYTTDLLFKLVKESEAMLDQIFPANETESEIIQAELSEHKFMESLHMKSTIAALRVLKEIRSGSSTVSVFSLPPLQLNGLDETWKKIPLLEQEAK

[6] = target: T2, AtSPX1^KSC (yeast two-hybrid) (Arabidopsis thaliana) (UniProt Q8LBH4); experiment: as above
T2 sequence: T1 sequence with A25Y, A29K, K136A, A139K, K140A, K143A

binding [1]: no binding (tested: 2–10 mg/mL)
Substance: AtPHR1^280–360 Olig2 (from UniProt Q94CL7 280-360) (domain or fragment)

binding [3]: no binding (tested: 2–10 mg/mL)
Substance: AtPHR1^280–360 Olig1 (from UniProt Q94CL7 280-360) (domain or fragment)

binding [4]: no binding (tested: 2–10 mg/mL)
Substance: AtPHR1^(222-358 Olig2) (from UniProt Q94CL7 222-358) (domain or fragment)

Second part, the substance before the results:

Substance: AtPHR1^(222-358 Olig1) (from UniProt Q94CL7 222-358) (domain or fragment)
binding [2]: no binding (tested: 2–10 mg/mL)

Substance: AtPHR1^226–360 fused to the Gal4-activation domain (from UniProt Q94CL7 226-360) (domain or fragment)
binding [5]: no binding | binding [6]: no binding
